Data as given in PubChem BioAssay AID1259405 (NCATS, 2018)
This is a random part of about 50,000 reagents tested. About 4,000 of them (8%) count as active. 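Mouse siRNA library applied to hamster cells; one well for each siRNA.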 Reagents against one gene are numbered here. No sequences are given here.

Assay: 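Knock-downs that lift recombinant protein yield in hamster ovary cells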 (primary screen)
System: Chinese hamster CHO-K1 ovary cells with stable secreted eGFP expression
Reagent: single siRNA against mouse genes, 0.8 pmol siRNA per well (2 µl of 400 nM stock)
Duration: 3 days
Measured: 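Percent of the per-plate non-targeting control median for intracellular GFP per well by laser scanning cytometry and for cell viability by ATP luminescence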
Scale: GFP, % of control: higher = more GFP per well, higher productivity; viability (ATP), % of control: higher = more viable cells (more ATP)
Hit rule: 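Called active when intracellular GFP, relative to negative control, is at or above 120%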

no.	gene symbol	reagent	GFP, % of control	viability (ATP), % of control	Outcome
1	Ins1 (insulin I)	1	66.8	61.3	inactive
2	Ins1 (insulin I)	2	93.8	47.9	inactive
3	Ins1 (insulin I)	3	47.3	52.1	inactive
4	Rab8b (RAB8B, member RAS oncogene family)	1	83.3	87.4	inactive
5	Rab8b (RAB8B, member RAS oncogene family)	2	95.4	75.6	inactive
6	Rab8b (RAB8B, member RAS oncogene family)	3	56.1	71.6	inactive
7	Grik1 (glutamate receptor, ionotropic, kainate 1)	1	86.8	102	inactive
8	Grik1 (glutamate receptor, ionotropic, kainate 1)	2	64.3	77.6	inactive
9	Grik1 (glutamate receptor, ionotropic, kainate 1)	3	165	80.3	active
10	Fbxw20 (F-box and WD-40 domain protein 20)	1	118	79.2	inactive
11	Fbxw20 (F-box and WD-40 domain protein 20)	2	106	74.4	inactive
12	Fbxw20 (F-box and WD-40 domain protein 20)	3	120	75.1	active
13	Fa2h (fatty acid 2-hydroxylase)	1	54.6	73.9	inactive
14	Fa2h (fatty acid 2-hydroxylase)	2	73.8	77.4	inactive
15	Fa2h (fatty acid 2-hydroxylase)	3	71.6	64.3	inactive
16	2610528J11Rik (RIKEN cDNA 2610528J11 gene)	1	52.8	75.6	inactive
17	2610528J11Rik (RIKEN cDNA 2610528J11 gene)	2	49.3	73.3	inactive
18	2610528J11Rik (RIKEN cDNA 2610528J11 gene)	3	95.5	90.6	inactive
19	Stx18 (syntaxin 18)	1	54.9	91.1	inactive
20	Stx18 (syntaxin 18)	2	61.8	43.6	inactive
21	Slc9a4	1	93.9	94.2	inactive
22	Slc9a4	2	31.8	89.3	inactive
23	Slc9a4	3	65.1	94.4	inactive
24	Tfb1m (transcription factor B1, mitochondrial)	1	122	81.7	active
25	Tfb1m (transcription factor B1, mitochondrial)	2	73.8	76.5	inactive
26	Rab37 (RAB37, member RAS oncogene family)	1	79.7	55.3	inactive
27	Rab37 (RAB37, member RAS oncogene family)	2	102	55.8	inactive
28	Rab37 (RAB37, member RAS oncogene family)	3	86.5	75.5	inactive
29	Ccdc60 (coiled-coil domain containing 60)	1	53.4	53.5	inactive
30	Ccdc60 (coiled-coil domain containing 60)	2	60.9	75.1	inactive
31	Ccdc60 (coiled-coil domain containing 60)	3	117	91.9	inactive
32	Adgrv1 (adhesion G protein-coupled receptor V1)	1	54.8	54.9	inactive
33	Adgrv1 (adhesion G protein-coupled receptor V1)	2	93.1	83.7	inactive
34	Adgrv1 (adhesion G protein-coupled receptor V1)	3	74	81.1	inactive
35	Cst13 (cystatin 13)	1	41.4	51.5	inactive
36	Cst13 (cystatin 13)	2	74.9	56.3	inactive
37	Cst13 (cystatin 13)	3	109	99.6	inactive
38	Or4c107 (olfactory receptor family 4 subfamily C member 107)	1	60.4	74.6	inactive
39	Or4c107 (olfactory receptor family 4 subfamily C member 107)	2	61.1	74.7	inactive
40	Or4c107 (olfactory receptor family 4 subfamily C member 107)	3	28.2	46	inactive
41	Vmn1r19 (vomeronasal 1 receptor 19)	1	79.4	45.9	inactive
42	Vmn1r19 (vomeronasal 1 receptor 19)	2	123	74.2	active
43	Vmn1r19 (vomeronasal 1 receptor 19)	3	68.3	90.3	inactive
44	Rad54b (RAD54 homolog B (S. cerevisiae))	1	62.1	81.2	inactive
45	Rad54b (RAD54 homolog B (S. cerevisiae))	2	171	76.6	active
46	Rad54b (RAD54 homolog B (S. cerevisiae))	3	121	78.3	active
47	Rad54b (RAD54 homolog B (S. cerevisiae))	4	94.2	70.6	inactive
48	Rad54b (RAD54 homolog B (S. cerevisiae))	5	69.3	74.5	inactive
49	Rad54b (RAD54 homolog B (S. cerevisiae))	6	172	96.1	active
50	Klk1b3 (kallikrein 1-related peptidase b3)	1	93.1	95.3	inactive
51	Klk1b3 (kallikrein 1-related peptidase b3)	2	61.3	45.7	inactive
52	Klk1b3 (kallikrein 1-related peptidase b3)	3	44.6	44.8	inactive
53	Sox8 (SRY (sex determining region Y)-box 8)	1	41.5	46.6	inactive
54	Sox8 (SRY (sex determining region Y)-box 8)	2	68	85.5	inactive
55	Sox8 (SRY (sex determining region Y)-box 8)	3	100	113	inactive
56	Snx5 (sorting nexin 5)	1	76.5	96.4	inactive
57	Snx5 (sorting nexin 5)	2	72.8	86.7	inactive
58	Bbs9 (Bardet-Biedl syndrome 9)	1	74.8	104	inactive
59	Bbs9 (Bardet-Biedl syndrome 9)	2	73.6	53	inactive
60	Bbs9 (Bardet-Biedl syndrome 9)	3	74.1	81.8	inactive
61	Atp12a (ATPase, H+/K+ transporting, nongastric, alpha polypeptide)	1	112	122	inactive
62	Atp12a (ATPase, H+/K+ transporting, nongastric, alpha polypeptide)	2	64.6	55.2	inactive
63	Atp12a (ATPase, H+/K+ transporting, nongastric, alpha polypeptide)	3	76.1	59.2	inactive
64	Ankrd49 (ankyrin repeat domain 49)	1	47.1	85	inactive
65	Ankrd49 (ankyrin repeat domain 49)	2	73.5	82.9	inactive
66	Ankrd49 (ankyrin repeat domain 49)	3	74.7	94	inactive
67	Glcci1 (glucocorticoid induced transcript 1)	1	35.3	81.6	inactive
68	Glcci1 (glucocorticoid induced transcript 1)	2	61.6	94.3	inactive
69	Glcci1 (glucocorticoid induced transcript 1)	3	129	86.5	active
70	Tfcp2 (transcription factor CP2)	1	72.1	80.8	inactive
71	Tfcp2 (transcription factor CP2)	2	38.9	59.8	inactive
72	Tfcp2 (transcription factor CP2)	3	72.9	91.3	inactive
73	Slc61a1	1	157	85	active
74	Slc61a1	2	87.5	85.9	inactive
75	Snrnp70 (small nuclear ribonucleoprotein 70 (U1))	1	84.2	91.8	inactive
76	Snrnp70 (small nuclear ribonucleoprotein 70 (U1))	2	68.8	82.7	inactive
77	Snrnp70 (small nuclear ribonucleoprotein 70 (U1))	3	61.5	63.4	inactive
78	Pou3f3 (POU domain, class 3, transcription factor 3)	1	80.7	111	inactive
79	Pou3f3 (POU domain, class 3, transcription factor 3)	2	56.1	73.1	inactive
80	Pou3f3 (POU domain, class 3, transcription factor 3)	3	49.9	68.3	inactive
81	Eefsec (eukaryotic elongation factor, selenocysteine-tRNA-specific)	1	93.9	91.6	inactive
82	Eefsec (eukaryotic elongation factor, selenocysteine-tRNA-specific)	2	73.9	72	inactive
83	Eefsec (eukaryotic elongation factor, selenocysteine-tRNA-specific)	3	49.8	70.2	inactive
84	Or2ag2 (olfactory receptor family 2 subfamily AG member 2)	1	99.5	90.2	inactive
85	Or2ag2 (olfactory receptor family 2 subfamily AG member 2)	2	72.2	63.5	inactive
86	Or2ag2 (olfactory receptor family 2 subfamily AG member 2)	3	0.072	366	inactive

Already shown: entries from further up.
no.	gene symbol	reagent	GFP, % of control	viability (ATP), % of control	Outcome
2	Ins1 (insulin I)	2	93.8	47.9	inactive
3	Ins1 (insulin I)	3	47.3	52.1	inactive
4	Rab8b (RAB8B, member RAS oncogene family)	1	83.3	87.4	inactive
5	Rab8b (RAB8B, member RAS oncogene family)	2	95.4	75.6	inactive
6	Rab8b (RAB8B, member RAS oncogene family)	3	56.1	71.6	inactive
7	Grik1 (glutamate receptor, ionotropic, kainate 1)	1	86.8	102	inactive
8	Grik1 (glutamate receptor, ionotropic, kainate 1)	2	64.3	77.6	inactive
